PubChem BioAssay AID504786, Drosophila RNAi Screening Center – 2011

Aim: 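Knock-downs reducing HIF reporter induction by the iron chelator DFO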 (primary screen)
Cells: Drosophila S2 cells with a stable HIF luciferase reporter
Reagent: long dsRNA against Drosophila genes, about 0.2 µg dsRNA per well of a 384-well plate
Timing: three days of knock-down, then 20 h of DFO before reading
Conditions: desferrioxamine (DFO) at 100 µM, an iron chelator that mimics hypoxia, for 20 h
Measured: 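HIF reporter luminescence in cells given 100 µM DFO for 20 h, using the mouse ldh-a hypoxia-response element, scored as per-plate z-scores; higher means greater loss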
Reading the numbers: z-score: higher = stronger loss of HIF reporter signal
In all, the deposit lists about 21,000 reagents; shown is an unselected part of those that have a named target and a result. 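Primary screen; positive scores mean lost reporter signal, so the sign may be inverted from the usual convention.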 Reagents against one gene are numbered here. A plus sign joins genes that one reagent is predicted to hit.

| target | dsRNA no. | z-score, replicate 1 | z-score, replicate 2 | z-score, replicate 3 | z-score, replicate 4 |
| --- | --- | --- | --- | --- | --- |
| CG13038 (GeneID 50268) | 1 | -0.1 | 0.2 | – | – |
| CG17684 (GeneID 3355066) | 1 | -0.1 | -0.1 | – | – |
| CG17684 (GeneID 3355066) | 2 | -0.3 | -0.4 | – | – |
| loh (GeneID 34435) | 1 | 0.2 | -0.2 | – | – |
| loh (GeneID 34435) | 2 | -0.2 | 0.1 | – | – |
| Capr (GeneID 59172) | 1 | -0.4 | -1 | – | – |
| CG6847 (GeneID 32778) | 1 | -0.2 | -0.4 | – | – |
| CG6847 (GeneID 32778) | 2 | -0.4 | 0.5 | – | – |
| sens-2 (GeneID 33957) | 1 | -0.4 | -0.3 | – | – |
| sens-2 (GeneID 33957) | 2 | -0.4 | -0.1 | – | – |
| CG13185 (GeneID 36268) | 1 | 0.1 | 0.5 | – | – |
| l(1)G0469 (GeneID 32371) | 1 | -0.4 | 0.1 | – | – |
| l(1)G0469 (GeneID 32371) | 2 | -0.3 | -1 | – | – |
| CG2258 (GeneID 31729) | 1 | 0.2 | 0 | – | – |
| acs (GeneID 38264) | 1 | -0.3 | -0.1 | – | – |
| CG18179 (GeneID 39124) | 1 | -0.2 | -0.3 | – | – |
| CG1143 (GeneID 38329) | 1 | -0.1 | -0.3 | – | – |
| alpha4GT2 (GeneID 43124) | 1 | -0.4 | 0.2 | – | – |
| CG14722 (GeneID 41419) | 1 | 0 | 0 | – | – |
| Menl-2 + Menl-1 | 1 | -0.3 | -0.7 | – | – |
| Menl-2 + Menl-1 | 2 | 0.2 | 0.1 | – | – |
| CysRS-m (GeneID 36563) | 1 | -0.2 | -0.4 | – | – |
| Mob3 (GeneID 34372) | 1 | -0.4 | -0.3 | – | – |
| fusl (GeneID 33765) | 1 | -0.3 | -0.3 | – | – |
| Eb1 (GeneID 35584) | 1 | -0.2 | 0.3 | – | – |
| Mst57Dc (GeneID 43121) | 1 | 0 | -0.7 | – | – |
| CG7997 (GeneID 36829) | 1 | -0.1 | 0 | – | – |
| beta4GalT7 (GeneID 42991) | 1 | -0.1 | -0.5 | – | – |
| Rab7 (GeneID 42841) | 1 | -0.2 | -0.5 | – | – |
| jeb (GeneID 36295) | 1 | -0.3 | -0.1 | – | – |
| jeb (GeneID 36295) | 2 | -0.3 | -0.3 | – | – |
| CG17646 (GeneID 33354) | 1 | -0.2 | -0.3 | – | – |
| mRpS25 (GeneID 32395) | 1 | 1.1 | 0.4 | – | – |
| CR16735 (GeneID 10178810) | 1 | -0.3 | -0.2 | – | – |
| CG5390 (GeneID 34383) | 1 | 0 | -0.2 | – | – |
| maf-S (GeneID 37336) | 1 | -0.2 | 0 | – | – |
| CG15399 (GeneID 33472) | 1 | -0.1 | 0 | – | – |
| CG33722 + CG18749 | 1 | -0.2 | -0.3 | – | – |
| CG33722 + CG18749 | 2 | -0.1 | 0.3 | – | – |
| CG15545 (GeneID 43658) | 1 | -0.2 | -0.3 | – | – |
| alt (GeneID 42127) | 1 | -0.3 | -0.7 | – | – |
| Acat2 (GeneID 38147) | 1 | -0.5 | -0.8 | – | – |
| Mst85C (GeneID 41089) | 1 | -0.2 | -0.3 | – | – |
| hog (GeneID 318105) | 1 | -0.3 | -0.3 | – | – |
| Dph2 (GeneID 41802) | 1 | -0.3 | -0.5 | – | – |
| CNT1 + CG13742 | 1 | -0.1 | -0.4 | – | – |
| haf (GeneID 33339) | 1 | -0.3 | -0.1 | – | – |
| CG42552 (retired record) (GeneID 8674047) | 1 | -0.6 | -0.7 | – | – |
| CG31516 (GeneID 318776) | 1 | -0.2 | -0.3 | – | – |
| CG10527 (GeneID 37393) | 1 | -0.3 | -0.8 | – | – |
| pds5 (GeneID 36286) | 1 | -0.3 | -0.9 | – | – |
| Or71a (GeneID 39641) | 1 | -0.2 | -0.3 | – | – |

An excerpt of the results above:
| target | dsRNA no. | z-score, replicate 1 | z-score, replicate 2 | z-score, replicate 3 | z-score, replicate 4 |
| --- | --- | --- | --- | --- | --- |
| mRpS25 (GeneID 32395) | 1 | 1.1 | 0.4 | – | – |
| CR16735 (GeneID 10178810) | 1 | -0.3 | -0.2 | – | – |
| CG5390 (GeneID 34383) | 1 | 0 | -0.2 | – | – |
| maf-S (GeneID 37336) | 1 | -0.2 | 0 | – | – |
| CG15399 (GeneID 33472) | 1 | -0.1 | 0 | – | – |
| CG33722 + CG18749 | 1 | -0.2 | -0.3 | – | – |
| CG33722 + CG18749 | 2 | -0.1 | 0.3 | – | – |
| CG15545 (GeneID 43658) | 1 | -0.2 | -0.3 | – | – |
| alt (GeneID 42127) | 1 | -0.3 | -0.7 | – | – |
| Acat2 (GeneID 38147) | 1 | -0.5 | -0.8 | – | – |
| Mst85C (GeneID 41089) | 1 | -0.2 | -0.3 | – | – |
| hog (GeneID 318105) | 1 | -0.3 | -0.3 | – | – |

More results:
| target | dsRNA no. | z-score, replicate 1 | z-score, replicate 2 | z-score, replicate 3 | z-score, replicate 4 |
| --- | --- | --- | --- | --- | --- |
| CG33090 (GeneID 34835) | 1 | 0 | -0.2 | – | – |
| CG13255 (GeneID 50109) | 1 | -0.3 | -0.5 | – | – |
| UQCR-14L (GeneID 43369) | 1 | -0.6 | -0.8 | – | – |
| Slc25A46a (GeneID 32564) | 1 | -0.1 | -0.4 | – | – |
| CG1208 (GeneID 40727) | 1 | -0.4 | -0.3 | – | – |
| CG13887 (GeneID 38096) | 1 | -0.1 | 0.1 | – | – |
| tipE (GeneID 38504) | 1 | -0.4 | -0.5 | – | – |
| Spn47C (GeneID 36163) | 1 | -0.2 | 0.1 | – | – |
| NetA (GeneID 32398) | 1 | -0.3 | -0.4 | – | – |
| CG31176 (GeneID 42554) | 1 | 0 | -0.2 | – | – |
| CG31176 (GeneID 42554) | 2 | 0.3 | 0.2 | – | – |
| l(2)05287 (GeneID 35374) | 1 | 0.5 | 2 | – | – |
| l(2)05287 (GeneID 35374) | 2 | 0.2 | 1.7 | – | – |
| Baldspot (GeneID 39860) | 1 | -0.3 | 0.7 | – | – |
| spn-A (GeneID 43577) | 1 | -0.2 | 1.8 | – | – |
| Dpit47 (GeneID 35565) | 1 | 0 | 0 | – | – |
| CG31810 (GeneID 318955) | 1 | -0.6 | 0.5 | – | – |
| Cyp9b1 (GeneID 35634) | 1 | -0.3 | -0.5 | – | – |
| ninaA (GeneID 33271) | 1 | -0.3 | -0.8 | – | – |
| CG10565 (GeneID 40332) | 1 | -0.3 | -0.4 | – | – |
| CG2656 (GeneID 40857) | 1 | -0.4 | -0.6 | – | – |
| Fit2 (GeneID 39907) | 1 | -0.3 | -0.3 | – | – |
| CG6900 (retired record) (GeneID 32868) | 1 | -0.2 | 0 | – | – |
| mirr (GeneID 39441) | 1 | -0.2 | -0.4 | – | – |
| CG10081 (GeneID 37226) | 1 | -0.2 | -0.6 | – | – |
| Ca-beta (GeneID 34557) | 1 | 0 | -0.1 | – | – |
| Ca-beta (GeneID 34557) | 2 | -0.4 | -1 | – | – |
| Ca-beta (GeneID 34557) | 3 | -0.3 | -0.6 | -0.5 | -0.3 |
| CG12477 (GeneID 40040) | 1 | -0.1 | 0.6 | – | – |
| tsl (GeneID 42564) | 1 | -0.1 | -0.4 | – | – |
| nAChRalpha4 (GeneID 40521) | 1 | 0 | 0.5 | – | – |
| CG13707 (GeneID 38583) | 1 | -0.2 | -0.4 | – | – |
| CG33144 (GeneID 36131) | 1 | -0.5 | -0.7 | – | – |
| CG33144 (GeneID 36131) | 2 | -0.2 | -0.2 | – | – |
| sm (GeneID 37254) | 1 | -0.2 | -0.3 | – | – |
| sm (GeneID 37254) | 2 | -0.3 | -0.8 | – | – |
| CG14321 (GeneID 42134) | 1 | 0 | 0.5 | – | – |
| flfl (GeneID 41675) | 1 | -0.6 | -1.2 | – | – |
| Pdxk (GeneID 39066) | 1 | -0.1 | 2.3 | – | – |
| Nlg3 (GeneID 40912) | 1 | -0.3 | -0.2 | – | – |
| Nlg3 (GeneID 40912) | 2 | 0.3 | -0.8 | – | – |
| Nlg3 (GeneID 40912) | 3 | 0 | 0.2 | – | – |
| Nlg3 (GeneID 40912) | 4 | -0.2 | -0.3 | – | – |
| CG3502 + CG9863 | 1 | -0.4 | -0.2 | – | – |
| nxf2 (GeneID 39843) | 1 | -0.3 | -0.4 | – | – |
| CG42729 (GeneID 3885667) | 1 | 0 | 0.3 | – | – |
| Tsp66E (GeneID 39017) | 1 | -0.3 | -0.2 | – | – |
| Fic (GeneID 33897) | 1 | -0.3 | -0.6 | – | – |
| CG4733 (GeneID 42368) | 1 | -1.1 | -0.5 | – | – |
| CG15478 (GeneID 31679) | 1 | -0.1 | 0 | – | – |
| CG15237 (GeneID 35591) | 1 | -0.3 | -0.5 | – | – |
| Sec20 (GeneID 40724) | 1 | -0.5 | -1 | – | – |
| Cpsf5 (GeneID 39083) | 1 | 1.4 | 1.2 | – | – |
| CG42254 (retired record) (GeneID 36644) | 1 | -0.2 | -0.3 | – | – |
